Drawing on PMC8983136, this text covers binding for one substance.

Protein sequences, listed by entry. Tags and fused reporters are not part of them.
UniProt A2RUB1: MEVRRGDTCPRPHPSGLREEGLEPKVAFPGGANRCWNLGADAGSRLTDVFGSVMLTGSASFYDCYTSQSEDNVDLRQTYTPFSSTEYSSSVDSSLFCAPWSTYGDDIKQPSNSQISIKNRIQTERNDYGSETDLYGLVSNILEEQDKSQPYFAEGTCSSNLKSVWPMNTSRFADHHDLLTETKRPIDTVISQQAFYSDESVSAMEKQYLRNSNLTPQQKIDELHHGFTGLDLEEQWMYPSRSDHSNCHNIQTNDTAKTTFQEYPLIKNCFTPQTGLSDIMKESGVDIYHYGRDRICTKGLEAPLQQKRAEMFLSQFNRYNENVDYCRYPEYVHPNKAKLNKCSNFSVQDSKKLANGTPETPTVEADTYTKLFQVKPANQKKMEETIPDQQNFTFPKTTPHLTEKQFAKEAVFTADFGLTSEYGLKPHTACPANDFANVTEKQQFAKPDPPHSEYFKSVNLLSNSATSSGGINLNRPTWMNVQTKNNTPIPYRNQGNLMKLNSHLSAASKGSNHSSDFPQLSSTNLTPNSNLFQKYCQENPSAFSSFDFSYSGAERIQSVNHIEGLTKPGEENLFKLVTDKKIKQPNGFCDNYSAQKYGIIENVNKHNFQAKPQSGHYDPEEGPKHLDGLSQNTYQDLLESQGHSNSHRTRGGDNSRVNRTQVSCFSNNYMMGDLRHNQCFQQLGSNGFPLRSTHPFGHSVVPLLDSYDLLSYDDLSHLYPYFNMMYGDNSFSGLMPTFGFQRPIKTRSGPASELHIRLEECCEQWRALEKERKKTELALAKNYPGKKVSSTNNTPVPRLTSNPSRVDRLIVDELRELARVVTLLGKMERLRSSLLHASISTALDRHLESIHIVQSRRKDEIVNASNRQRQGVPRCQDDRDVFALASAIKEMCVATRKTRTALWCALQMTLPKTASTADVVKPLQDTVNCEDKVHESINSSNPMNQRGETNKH

Changes are numbered by the printed parent chain. No constants are given. Whether binding was seen depends on the method and setting. Binding seen in cells or lysates may run through a third protein. Some entries that bind do so weakly or less than the wild type. Tags and fused reporters may be left off the sequences shown.

The target of assay [1] is T1, WT FLAG-tagged YTHDC2 (pcDNA3.1-HsYTHDC2-1-1430-Flag) (human) (UniProt Q9H6S0).
T1 sequence: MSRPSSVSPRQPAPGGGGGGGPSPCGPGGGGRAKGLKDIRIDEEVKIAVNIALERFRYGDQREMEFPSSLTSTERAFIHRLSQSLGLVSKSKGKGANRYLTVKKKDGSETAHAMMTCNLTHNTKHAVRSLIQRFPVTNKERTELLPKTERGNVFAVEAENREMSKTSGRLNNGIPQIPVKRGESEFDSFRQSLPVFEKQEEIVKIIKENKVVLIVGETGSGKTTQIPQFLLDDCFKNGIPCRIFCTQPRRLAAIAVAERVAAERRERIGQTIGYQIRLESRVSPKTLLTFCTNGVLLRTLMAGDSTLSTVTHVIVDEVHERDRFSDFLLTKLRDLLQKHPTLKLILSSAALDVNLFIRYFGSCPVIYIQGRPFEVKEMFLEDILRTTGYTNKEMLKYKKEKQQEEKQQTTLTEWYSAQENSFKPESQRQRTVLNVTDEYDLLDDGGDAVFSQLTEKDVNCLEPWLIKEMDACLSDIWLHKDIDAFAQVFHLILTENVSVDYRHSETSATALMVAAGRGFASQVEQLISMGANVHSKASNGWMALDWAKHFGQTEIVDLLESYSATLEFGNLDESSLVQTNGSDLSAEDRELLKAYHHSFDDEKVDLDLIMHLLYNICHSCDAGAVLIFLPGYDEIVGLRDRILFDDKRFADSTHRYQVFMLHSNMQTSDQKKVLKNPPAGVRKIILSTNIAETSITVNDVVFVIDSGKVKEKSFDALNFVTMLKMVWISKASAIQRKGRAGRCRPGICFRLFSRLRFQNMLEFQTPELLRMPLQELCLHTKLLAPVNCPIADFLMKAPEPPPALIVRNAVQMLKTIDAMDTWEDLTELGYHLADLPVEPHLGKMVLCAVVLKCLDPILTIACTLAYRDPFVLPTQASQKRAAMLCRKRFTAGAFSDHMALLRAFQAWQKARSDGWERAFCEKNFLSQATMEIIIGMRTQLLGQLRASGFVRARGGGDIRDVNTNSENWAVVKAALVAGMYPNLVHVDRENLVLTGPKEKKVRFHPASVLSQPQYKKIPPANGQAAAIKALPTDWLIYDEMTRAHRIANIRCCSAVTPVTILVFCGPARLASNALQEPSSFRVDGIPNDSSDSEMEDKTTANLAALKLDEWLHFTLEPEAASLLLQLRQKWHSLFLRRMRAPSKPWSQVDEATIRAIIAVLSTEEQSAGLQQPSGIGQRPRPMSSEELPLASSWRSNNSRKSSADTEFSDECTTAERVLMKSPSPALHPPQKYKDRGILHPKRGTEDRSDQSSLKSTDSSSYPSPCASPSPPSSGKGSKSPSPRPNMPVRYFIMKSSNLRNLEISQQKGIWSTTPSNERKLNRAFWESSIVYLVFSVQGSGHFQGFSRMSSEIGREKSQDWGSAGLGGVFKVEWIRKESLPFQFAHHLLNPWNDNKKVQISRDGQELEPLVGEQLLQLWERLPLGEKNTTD
Description: co-IP; HEK-293 cells co-transfected with WT or mutant YTHDC2-Flag and HA-MEIOC; lysate diluted in binding buffer (150 mM NaCl, 20 mM Tris-HCl pH 7.5, 1 mM EDTA, 10% glycerol, 0.1% BSA); anti-FLAG M2 magnetic beads overnight at 4°C; RNase A (100 μg/mL) when required; blots with anti-Flag and anti-HA.

The target in assay [2] is T2, p.P856R FLAG-tagged YTHDC2 (pcDNA3.1-HsYTHDC2-1-1430-P856R-Flag) (human) (UniProt Q9H6S0).
T2 sequence: T1 sequence with P856R
The description is as above.

In the case of “HA-tagged MEIOC (from UniProt A2RUB1 1-952)”, the binding result in assay [1] and in assay [2] was “binds” throughout.
